Drawing on paper PMC4268710, this text covers binding for three molecules.

Results are given in words; binding and its absence hold for the method and conditions named. For some of these results: In cells and extracts the contact can be indirect. Some results given as binding are weak or reduced against the parent protein; the word gives no strength. Where a sequence is shown, tags or fusion partners need not be part of it.

For test [1], the target named is T1, Egd1 (beta-subunit of NAC) fused to a DHFR fragment (S. cerevisiae) (UniProt Q02642).
T1 sequence: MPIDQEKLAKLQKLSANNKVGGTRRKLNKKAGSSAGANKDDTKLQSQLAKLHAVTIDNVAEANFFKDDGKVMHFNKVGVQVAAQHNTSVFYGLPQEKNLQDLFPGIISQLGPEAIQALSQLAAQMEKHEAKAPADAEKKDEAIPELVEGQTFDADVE
Put plainly: split reporter; split DHFR protein complementation assay in diploid yeast; Egd1 or Egd2 as bait with F[1,2] or F[3], library of the reciprocal mating type as prey; growth on methotrexate, glucose or galactose, 30 °C; colony area >150 as threshold; re-confirmed by mating single strains.

Test [2] concerns the target T2, Egd2 (alpha-subunit of NAC) fused to a DHFR fragment (S. cerevisiae) (UniProt P38879).
T2 sequence: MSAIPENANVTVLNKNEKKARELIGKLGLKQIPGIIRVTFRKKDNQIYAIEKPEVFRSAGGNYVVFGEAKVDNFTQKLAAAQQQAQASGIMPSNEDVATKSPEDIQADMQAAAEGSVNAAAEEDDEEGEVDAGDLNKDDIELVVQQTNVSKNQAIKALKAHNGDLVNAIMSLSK
Described as above.

The target in test [3] is T3, HA-tagged OM14 (S. cerevisiae) (UniProt P38325).
T3 sequence: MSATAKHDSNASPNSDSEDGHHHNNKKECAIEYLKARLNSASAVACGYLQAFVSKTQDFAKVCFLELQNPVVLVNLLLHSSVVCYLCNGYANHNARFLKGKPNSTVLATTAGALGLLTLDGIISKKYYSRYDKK
Briefly: co-IP; lysate of yeast with HA-tagged OM14 (0.1% NP-40) loaded on an anti-HA sepharose column, eluted with 0.1 M acetic acid pH 3, western blot; strain with untagged OM14 as control. On the technique in general: Immunoblotting shows a protein as a band on a membrane.

Test [4] addresses T4, His6-EGD2 of the yeast NAC complex purified from bacteria (yeast) (UniProt P38879).
T4 sequence: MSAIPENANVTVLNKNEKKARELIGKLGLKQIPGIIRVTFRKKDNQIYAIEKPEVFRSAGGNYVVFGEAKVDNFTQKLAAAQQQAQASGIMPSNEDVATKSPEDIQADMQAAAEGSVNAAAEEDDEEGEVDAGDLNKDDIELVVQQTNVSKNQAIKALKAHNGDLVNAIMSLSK
Briefly: SEC; EGD2 and EGD1 co-expressed in E. coli, Ni column by the His6 tag of EGD2, then Superdex 200 in 20 mM Tris pH 7, 50 mM NaCl, 5 mM MgCl2; both purified. In general terms: In gel filtration, larger molecules generally elute earlier.

B1: OM14 fused to a DHFR fragment (prey of the DHFR PCA library) (protein, UniProt P38325 1-134)
chain: MSATAKHDSNASPNSDSEDGHHHNNKKECAIEYLKARLNSASAVACGYLQAFVSKTQDFAKVCFLELQNPVVLVNLLLHSSVVCYLCNGYANHNARFLKGKPNSTVLATTAGALGLLTLDGIISKKYYSRYDKK
Consider B1, for which the binding result in test [1] and in test [2] was “binds” throughout.

B2: HXK1 (endogenous) (protein, UniProt P04806 1-485)
chain: MVHLGPKKPQARKGSMADVPKELMDEIHQLEDMFTVDSETLRKVVKHFIDELNKGLTKKGGNIPMIPGWVMEFPTGKESGNYLAIDLGGTNLRVVLVKLSGNHTFDTTQSKYKLPHDMRTTKHQEELWSFIADSLKDFMVEQELLNTKDTLPLGFTFSYPASQNKINEGILQRWTKGFDIPNVEGHDVVPLLQNEISKRELPIEIVALINDTVGTLIASYYTDPETKMGVIFGTGVNGAFYDVVSDIEKLEGKLADDIPSNSPMAINCEYGSFDNEHLVLPRTKYDVAVDEQSPRPGQQAFEKMTSGYYLGELLRLVLLELNEKGLMLKDQDLSKLKQPYIMDTSYPARIEDDPFENLEDTDDIFQKDFGVKTTLPERKLIRRLCELIGTRAARLAVCGIAAICQKRGYKTGHIAADGSVYNKYPGFKEAAAKGLRDIYGWTGDASKDPITIVPAEDGSGAGAAVIAALSEKRIAEGKSLGIIGA
As for B2, in test [3], the binding entry is recorded as “no binding”.

B3: EGD1 of the yeast NAC complex purified from bacteria (protein, UniProt Q02642 1-157)
chain: MPIDQEKLAKLQKLSANNKVGGTRRKLNKKAGSSAGANKDDTKLQSQLAKLHAVTIDNVAEANFFKDDGKVMHFNKVGVQVAAQHNTSVFYGLPQEKNLQDLFPGIISQLGPEAIQALSQLAAQMEKHEAKAPADAEKKDEAIPELVEGQTFDADVE
For B3, the binding entry in test [4] is reported as “binds”.
